Test results as given in paper PMC12040169 (PLOS Biology, 2025).
This is one part of the list.

These molecules were tested on T1, CTL2-GFP (C. trachomatis L2/434/Bu, GFP-expressing). Conditions: bulk GFP, single well; 28.5 h, 10 µM; inhibitor.
T1 construct: L2/434/Bu, GFP-expressing
Design: species or system HeLa; Intracellular C. trachomatis growth in HeLa cells, bulk GFP fluorescence relative to DMSO

Row | Compound | % of control remaining [%]
1 | O=C(NC[C@H]1C[C@@H]2CC[N@]1C[C@@H]2CN1CCN(c2ccccn2)CC1)Nc1ccccc1 [CBK289114] | 108.685
2 | FC(F)(F)c1cccc(-c2cn(-c3ccsc3)nn2)c1 [CBK112937] | 74.6333
3 | COc1ccc(C(=O)Nc2cnn(CCCC(=O)O)c2)cc1 [CBK270052] | 107.311
4 | C/C(=N\N)c1ccc2[nH]c3c(c2c1)CCC/C3=N\N [CBK261812] | 108.978
5 | C[C@@H](Cn1nc2c(cc1=O)CCCC2)NC(=O)c1ccco1 [CBK284559] | 150.709
6 | O=C(Nc1ccc2nc(CN3CCOCC3)[nH]c2c1)C1CCCCC1 [CBK305728] | 127.441
7 | c1ccc2nc3c(nc2c1)sc1nc2ccccc2n13 [CBK268872] | 71.0847
8 | N#CCCOc1nc2ccccc2nc1N1CCCC1 [CBK115763] | 80.6489
9 | O=C(O)COCC(=O)N1C[C@@H]2OCC(=O)N(Cc3ccccc3)[C@@H]2C1 [CBK289652] | 163.704
10 | COc1ccccc1CC(=O)N1C2CCC1CC(O)(c1ccco1)C2 (stereo not drawn) [CBK284106] | 119.575
11 | CC(=O)c1ccc(-c2nc(-c3cccc(OC(F)(F)F)c3)cnc2N)cc1 [CBK064105] | 111.67
12 | Cc1ccc(Cl)c(OC(C)C(=O)N2CCN(c3ccccn3)CC2)c1 (stereo not drawn) [CBK304650] | 110.855
13 | CCc1ccccc1NC(=O)CN1CCCCC1C(=O)O (stereo not drawn) [CBK287179] | 101.204
14 | O=C(Nc1nccs1)c1cc(=O)c2ccccc2o1 [CBK287570] | 136.402
15 | OC1(c2cccnc2)CCCC2CN(Cc3c(F)cccc3F)CC21 (stereo not drawn) [CBK284512] | 78.0006
16 | Cc1ccc(-c2noc(C(C)NC(=O)C3(Cn4ccnc4)CC3)n2)cc1 (stereo not drawn) [CBK307661] | 88.3271
17 | O=S(=O)(c1ccc2ccccc2c1)N1CCN(C2CCCCCCC2)CC1 [CBK264186G] | 126.647
18 | NC(CCc1nc2ccccc2[nH]1)c1nc2ccccc2[nH]1 (stereo not drawn) [CBK269970] | 155.331
19 | O=C(Nc1cccc(C(F)(F)F)c1)N[C@H]1[C@H](O)[C@@H](N2CCCC2)[C@@H]2OC[C@H]1O2 [CBK288828] | 143.809
20 | O=C(NCc1ccccc1)c1c(O)c2ccccc2n(Cc2ccccc2)c1=O [CBK291174] | 114.716

Records 10 through 11 from above:
Row | Compound | % of control remaining [%]
10 | COc1ccccc1CC(=O)N1C2CCC1CC(O)(c1ccco1)C2 (stereo not drawn) [CBK284106] | 119.575
11 | CC(=O)c1ccc(-c2nc(-c3cccc(OC(F)(F)F)c3)cnc2N)cc1 [CBK064105] | 111.67

Next part.

Row | Compound | % of control remaining [%]
21 | Cn1nc(CN2CCNC(=O)C2c2ccccc2C(F)(F)F)[nH]c1=O (stereo not drawn) [CBK306269] | 180.628
22 | Cc1ccc(NC(=O)c2cnc3ccc(C)cn3c2=O)cc1 [CBK287285] | 129.913
23 | CN(C(=O)CN1CCN(c2cc(-c3cc4ccccc4o3)ncn2)CC1)c1ccccc1 [CBK091128] | 203.055
24 | Cc1cc(C)n(C(C)C(=O)NCC2(N(C)C)CCCC2)n1 (stereo not drawn) [CBK281713] | 78.9656
25 | Oc1ccc(Nc2ccnc3cc(Cl)ccc23)cc1 [CBK012365C] | 192.398
26 | O=C(COC(=O)C1CCN(S(=O)(=O)c2cccc3cccnc23)CC1)c1cccc([N+](=O)[O-])c1 [CBK264435] | 128.701
27 | COc1ccc(-c2noc(-c3cnccn3)n2)c(OC)c1 [CBK287878] | 131.417
28 | Cn1c(-c2cc(=O)c(C(=O)O)c[nH]2)n[nH]c1=O [CBK012603] | 158.599
29 | CC(C)c1ccc(C(C)NC(=O)c2ccc(=O)n(CC(=O)NC3CCCC3)c2)cc1 (stereo not drawn) [CBK286038] | 133.245
30 | c1ccc2oc(SCCCCSc3nc4ccccc4o3)nc2c1 [CBK025465] | 113.364
31 | Cc1ccc(S(=O)(=O)N2CCOCC2)cc1C(=O)NCCc1ccccc1 [CBK269658] | 107.706
32 | CC1CCN(S(=O)(=O)c2ccc(Cl)c(C(=O)Nc3ccc(C(=O)O)cc3)c2)CC1 [CBK265170] | 115.129
33 | CC(C(=O)NCCc1ccncc1)n1cnc2ccccc21 (stereo not drawn) [CBK282202] | 132.273
34 | Cc1ccc(S(=O)(=O)OCCOS(=O)(=O)c2ccc(C)cc2)cc1 [CBK260986] | 118.645
35 | Cc1ccc(C)c(NS(=O)(=O)c2ccc(NC(=O)c3ccc(CN4CCOCC4)cc3)cc2)c1 [CBK264780] | 101.035
36 | O=C(NCCCc1ccccn1)c1cccc(N2CCCC2=O)c1 [CBK282643] | 113.623
37 | CC(C)c1ccc(S(=O)(=O)n2ccn(-c3cccc(C(F)(F)F)c3)c2=O)cc1 [CBK106587] | 135.992
38 | O=C(O)CC1C(=O)NCCN1CC(c1ccccc1)c1ccccc1 (stereo not drawn) [CBK286539] | 118.834
39 | c1cncc(CN2CCCN(c3nccc(OCC4COc5ccccc5O4)n3)CC2)c1 (stereo not drawn) [CBK083969] | 89.0295
